Measurements from the supplement of paper PMC10849652.
Some of the results follow.

Protein sequences, listed by entry. Tags and fused reporters are not part of them. Lines headed by an entry give the natural chain unless they say otherwise; changes in a name come on top.
UniProt O95249: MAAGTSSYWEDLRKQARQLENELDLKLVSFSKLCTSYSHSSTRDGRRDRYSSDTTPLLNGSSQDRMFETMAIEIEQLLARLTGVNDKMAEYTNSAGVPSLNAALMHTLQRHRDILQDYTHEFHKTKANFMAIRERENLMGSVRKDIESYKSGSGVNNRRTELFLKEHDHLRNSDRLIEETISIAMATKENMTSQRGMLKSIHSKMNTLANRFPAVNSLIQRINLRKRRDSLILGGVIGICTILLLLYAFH
UniProt Q9BRX5: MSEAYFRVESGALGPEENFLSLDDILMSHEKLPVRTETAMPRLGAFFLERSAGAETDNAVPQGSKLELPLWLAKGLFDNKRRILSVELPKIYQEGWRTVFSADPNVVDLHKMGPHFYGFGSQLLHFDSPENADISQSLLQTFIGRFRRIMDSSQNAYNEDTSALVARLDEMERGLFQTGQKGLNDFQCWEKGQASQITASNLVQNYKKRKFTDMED
UniProt Q9NPB8: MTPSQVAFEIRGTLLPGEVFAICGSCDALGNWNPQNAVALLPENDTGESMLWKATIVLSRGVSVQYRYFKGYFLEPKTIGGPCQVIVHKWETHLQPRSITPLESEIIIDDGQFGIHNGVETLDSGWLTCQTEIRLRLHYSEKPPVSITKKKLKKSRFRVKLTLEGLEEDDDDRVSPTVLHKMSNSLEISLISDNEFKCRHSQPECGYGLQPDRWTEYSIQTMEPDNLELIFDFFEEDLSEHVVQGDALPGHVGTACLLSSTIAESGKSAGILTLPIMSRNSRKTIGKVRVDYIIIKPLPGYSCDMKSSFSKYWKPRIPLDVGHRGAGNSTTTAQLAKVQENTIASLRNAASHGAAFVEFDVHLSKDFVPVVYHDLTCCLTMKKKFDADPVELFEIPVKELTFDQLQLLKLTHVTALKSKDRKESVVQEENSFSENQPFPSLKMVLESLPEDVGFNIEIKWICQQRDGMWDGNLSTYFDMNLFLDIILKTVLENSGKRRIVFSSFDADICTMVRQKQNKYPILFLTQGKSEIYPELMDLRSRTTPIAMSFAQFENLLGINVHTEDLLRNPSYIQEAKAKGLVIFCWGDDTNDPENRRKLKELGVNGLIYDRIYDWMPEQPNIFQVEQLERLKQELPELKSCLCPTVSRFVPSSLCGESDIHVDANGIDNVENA
UniProt Q8IW92: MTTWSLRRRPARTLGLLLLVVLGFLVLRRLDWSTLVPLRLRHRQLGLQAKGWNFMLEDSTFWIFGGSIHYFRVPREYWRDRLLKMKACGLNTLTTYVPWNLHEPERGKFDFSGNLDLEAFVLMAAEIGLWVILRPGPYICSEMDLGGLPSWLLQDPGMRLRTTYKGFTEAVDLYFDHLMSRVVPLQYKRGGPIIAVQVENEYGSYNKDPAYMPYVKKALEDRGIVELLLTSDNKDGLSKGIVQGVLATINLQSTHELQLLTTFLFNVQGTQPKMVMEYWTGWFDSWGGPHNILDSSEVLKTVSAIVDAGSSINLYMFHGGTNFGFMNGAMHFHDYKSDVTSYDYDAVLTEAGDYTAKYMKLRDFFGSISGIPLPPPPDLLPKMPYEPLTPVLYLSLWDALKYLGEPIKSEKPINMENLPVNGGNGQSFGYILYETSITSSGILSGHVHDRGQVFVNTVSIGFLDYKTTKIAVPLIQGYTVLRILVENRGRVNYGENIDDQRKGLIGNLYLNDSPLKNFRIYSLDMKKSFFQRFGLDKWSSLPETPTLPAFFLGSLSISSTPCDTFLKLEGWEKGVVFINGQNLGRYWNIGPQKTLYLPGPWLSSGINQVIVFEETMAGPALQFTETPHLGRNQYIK
UniProt Q7Z5G4, whole entry, looked up: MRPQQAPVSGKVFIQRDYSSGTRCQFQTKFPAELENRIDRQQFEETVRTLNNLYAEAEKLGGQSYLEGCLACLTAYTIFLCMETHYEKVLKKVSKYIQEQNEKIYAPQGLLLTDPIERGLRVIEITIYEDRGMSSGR
UniProt Q9BXV9: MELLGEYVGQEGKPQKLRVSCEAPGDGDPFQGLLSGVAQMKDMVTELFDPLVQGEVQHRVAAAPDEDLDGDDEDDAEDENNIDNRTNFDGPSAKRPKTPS
UniProt P22352, whole entry, looked up: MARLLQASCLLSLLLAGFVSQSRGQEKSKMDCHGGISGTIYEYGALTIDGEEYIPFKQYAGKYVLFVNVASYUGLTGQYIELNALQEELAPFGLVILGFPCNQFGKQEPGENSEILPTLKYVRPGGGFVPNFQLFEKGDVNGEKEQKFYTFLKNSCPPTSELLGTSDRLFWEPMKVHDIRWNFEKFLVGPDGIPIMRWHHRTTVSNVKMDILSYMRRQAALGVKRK
UniProt Q9HC38: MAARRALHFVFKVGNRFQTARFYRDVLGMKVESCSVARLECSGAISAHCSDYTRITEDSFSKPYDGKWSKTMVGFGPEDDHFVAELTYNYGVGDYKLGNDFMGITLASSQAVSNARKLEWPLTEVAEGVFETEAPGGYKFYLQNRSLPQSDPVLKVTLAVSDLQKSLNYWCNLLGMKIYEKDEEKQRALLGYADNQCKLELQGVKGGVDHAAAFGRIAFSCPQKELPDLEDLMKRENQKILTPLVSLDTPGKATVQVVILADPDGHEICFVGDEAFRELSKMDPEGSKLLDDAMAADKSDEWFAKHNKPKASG
UniProt Q9HAV0, whole entry, looked up: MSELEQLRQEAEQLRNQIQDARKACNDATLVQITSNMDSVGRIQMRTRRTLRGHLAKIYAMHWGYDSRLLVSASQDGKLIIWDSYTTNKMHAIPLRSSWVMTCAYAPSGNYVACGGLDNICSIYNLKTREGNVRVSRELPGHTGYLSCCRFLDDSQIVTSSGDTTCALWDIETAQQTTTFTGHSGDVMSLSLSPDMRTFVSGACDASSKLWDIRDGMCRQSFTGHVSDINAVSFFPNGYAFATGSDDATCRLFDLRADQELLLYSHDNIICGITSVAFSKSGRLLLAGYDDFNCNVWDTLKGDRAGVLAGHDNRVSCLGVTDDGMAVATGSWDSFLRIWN
UniProt Q9HC44: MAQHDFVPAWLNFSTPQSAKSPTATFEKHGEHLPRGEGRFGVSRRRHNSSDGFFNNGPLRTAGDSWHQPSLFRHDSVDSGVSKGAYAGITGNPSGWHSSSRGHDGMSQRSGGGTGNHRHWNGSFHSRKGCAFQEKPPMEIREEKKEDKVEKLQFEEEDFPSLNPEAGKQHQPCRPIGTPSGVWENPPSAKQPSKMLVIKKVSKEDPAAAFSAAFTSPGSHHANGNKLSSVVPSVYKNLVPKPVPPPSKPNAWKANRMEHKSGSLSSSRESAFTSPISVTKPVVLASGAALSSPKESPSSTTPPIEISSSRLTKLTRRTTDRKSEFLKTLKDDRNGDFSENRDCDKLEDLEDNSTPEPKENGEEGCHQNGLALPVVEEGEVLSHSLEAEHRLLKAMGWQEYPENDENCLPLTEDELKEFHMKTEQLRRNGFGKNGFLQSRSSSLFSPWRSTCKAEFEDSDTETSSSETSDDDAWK
UniProt P60983, whole entry, looked up: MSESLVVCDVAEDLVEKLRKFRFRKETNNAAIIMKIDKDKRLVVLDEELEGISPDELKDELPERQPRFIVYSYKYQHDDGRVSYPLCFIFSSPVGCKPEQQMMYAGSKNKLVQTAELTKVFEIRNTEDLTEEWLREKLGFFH
UniProt Q14344, whole entry, looked up: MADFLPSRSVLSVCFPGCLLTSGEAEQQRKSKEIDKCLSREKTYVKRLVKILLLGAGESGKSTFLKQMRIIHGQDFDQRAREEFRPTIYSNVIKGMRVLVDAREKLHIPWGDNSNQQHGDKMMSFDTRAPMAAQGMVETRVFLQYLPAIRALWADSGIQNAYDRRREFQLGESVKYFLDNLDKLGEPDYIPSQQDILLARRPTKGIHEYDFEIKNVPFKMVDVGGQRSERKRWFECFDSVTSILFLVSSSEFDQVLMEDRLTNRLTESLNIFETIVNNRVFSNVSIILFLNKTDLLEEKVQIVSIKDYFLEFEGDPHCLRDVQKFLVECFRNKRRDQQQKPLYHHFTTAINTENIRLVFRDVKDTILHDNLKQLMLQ
UniProt Q4V328: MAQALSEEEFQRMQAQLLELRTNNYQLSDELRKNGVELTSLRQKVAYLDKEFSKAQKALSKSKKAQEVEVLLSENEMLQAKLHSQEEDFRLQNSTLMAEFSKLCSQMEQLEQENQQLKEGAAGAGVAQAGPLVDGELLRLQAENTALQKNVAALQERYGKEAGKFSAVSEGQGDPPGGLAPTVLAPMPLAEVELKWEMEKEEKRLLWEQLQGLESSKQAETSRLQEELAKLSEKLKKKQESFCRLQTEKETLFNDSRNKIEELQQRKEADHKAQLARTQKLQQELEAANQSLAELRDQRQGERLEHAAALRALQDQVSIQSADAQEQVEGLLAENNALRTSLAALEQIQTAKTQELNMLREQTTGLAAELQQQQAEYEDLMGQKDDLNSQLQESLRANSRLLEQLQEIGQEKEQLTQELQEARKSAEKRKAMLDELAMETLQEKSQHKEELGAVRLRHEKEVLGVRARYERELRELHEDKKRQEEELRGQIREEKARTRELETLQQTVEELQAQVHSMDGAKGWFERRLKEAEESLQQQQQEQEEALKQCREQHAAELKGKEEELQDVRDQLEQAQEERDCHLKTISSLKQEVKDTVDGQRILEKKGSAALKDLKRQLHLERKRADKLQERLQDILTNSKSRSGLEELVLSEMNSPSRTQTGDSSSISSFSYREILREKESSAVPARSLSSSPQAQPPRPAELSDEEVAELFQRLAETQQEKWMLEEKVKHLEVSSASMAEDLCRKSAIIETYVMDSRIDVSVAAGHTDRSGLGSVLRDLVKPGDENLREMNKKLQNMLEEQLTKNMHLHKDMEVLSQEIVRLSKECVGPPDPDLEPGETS
UniProt Q08378: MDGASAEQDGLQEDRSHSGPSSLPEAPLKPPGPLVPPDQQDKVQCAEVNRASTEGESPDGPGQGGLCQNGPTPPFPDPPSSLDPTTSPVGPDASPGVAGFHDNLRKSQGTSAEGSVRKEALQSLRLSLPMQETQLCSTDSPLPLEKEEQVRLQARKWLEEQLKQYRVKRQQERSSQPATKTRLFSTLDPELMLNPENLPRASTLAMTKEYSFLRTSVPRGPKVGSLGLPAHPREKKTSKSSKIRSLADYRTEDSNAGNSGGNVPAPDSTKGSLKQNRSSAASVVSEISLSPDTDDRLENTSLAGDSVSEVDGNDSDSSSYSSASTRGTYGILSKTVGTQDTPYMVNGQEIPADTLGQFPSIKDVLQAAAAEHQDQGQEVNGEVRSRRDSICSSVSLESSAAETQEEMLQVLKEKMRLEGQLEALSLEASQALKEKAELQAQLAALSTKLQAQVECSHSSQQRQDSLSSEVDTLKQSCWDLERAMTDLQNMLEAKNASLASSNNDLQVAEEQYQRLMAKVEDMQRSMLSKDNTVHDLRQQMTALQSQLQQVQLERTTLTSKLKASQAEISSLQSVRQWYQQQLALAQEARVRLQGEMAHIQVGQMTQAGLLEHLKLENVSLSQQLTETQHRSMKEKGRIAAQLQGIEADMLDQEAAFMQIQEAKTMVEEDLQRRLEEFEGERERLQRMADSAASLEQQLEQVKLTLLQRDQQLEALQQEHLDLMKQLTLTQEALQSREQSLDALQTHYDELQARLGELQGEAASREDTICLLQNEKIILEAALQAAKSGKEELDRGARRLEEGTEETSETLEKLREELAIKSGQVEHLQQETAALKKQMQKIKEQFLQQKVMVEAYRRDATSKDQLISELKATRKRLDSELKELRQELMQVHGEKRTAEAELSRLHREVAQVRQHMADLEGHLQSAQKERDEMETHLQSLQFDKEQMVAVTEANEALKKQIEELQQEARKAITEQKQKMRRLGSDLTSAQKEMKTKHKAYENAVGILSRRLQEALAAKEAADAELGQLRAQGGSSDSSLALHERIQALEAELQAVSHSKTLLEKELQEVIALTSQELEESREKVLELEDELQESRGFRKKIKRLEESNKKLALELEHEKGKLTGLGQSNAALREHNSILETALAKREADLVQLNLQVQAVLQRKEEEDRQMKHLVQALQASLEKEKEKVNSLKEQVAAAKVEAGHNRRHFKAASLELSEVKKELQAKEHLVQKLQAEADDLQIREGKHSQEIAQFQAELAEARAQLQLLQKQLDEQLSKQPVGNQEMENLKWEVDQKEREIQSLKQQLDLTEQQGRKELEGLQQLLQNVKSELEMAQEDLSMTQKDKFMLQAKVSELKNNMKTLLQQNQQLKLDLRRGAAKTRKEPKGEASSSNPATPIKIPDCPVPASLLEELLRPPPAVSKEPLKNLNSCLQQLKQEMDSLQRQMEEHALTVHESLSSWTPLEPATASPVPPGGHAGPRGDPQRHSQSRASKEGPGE
UniProt O75791: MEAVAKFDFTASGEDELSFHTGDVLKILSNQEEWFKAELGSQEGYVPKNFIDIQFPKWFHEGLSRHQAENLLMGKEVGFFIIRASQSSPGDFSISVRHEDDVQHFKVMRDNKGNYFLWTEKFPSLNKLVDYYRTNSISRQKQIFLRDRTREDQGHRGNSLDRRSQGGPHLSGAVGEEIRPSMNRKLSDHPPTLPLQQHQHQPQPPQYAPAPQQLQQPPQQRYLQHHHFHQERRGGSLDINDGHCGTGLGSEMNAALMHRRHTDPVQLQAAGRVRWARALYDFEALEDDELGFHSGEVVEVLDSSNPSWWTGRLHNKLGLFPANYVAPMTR

These targets were tested with c1cn2cc(-c3ccc4cn[nH]c4c3)nc(Nc3ccc(N4CCOCC4)cc3)c2n1 [entospletinib] (assay: log2 fold change, soluble protein after heating vs DMSO (PISA); higher = thermal stabilisation; K562 cells, 10 uM, 30 min; active = over 0.2 and 3.5 SD of the protein, either way, in both replicates (recomputed)).
Outline: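 Soluble protein was quantified by TMTpro 16plex LC-MS/MS after channel sums were equalised. It was obtained as the supernatant after 21,000xg for 90 min from pooled aliquots of K562 cells (2×10^6 cells/mL, 10 μM compound, 30 min) heated for 3 min across 48°C-58°C and extracted in PBS with 0.5% NP-40 at 4°C. Thermal stability values are relative to control samples and come from duplicates. They are given as log2 fold changes.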

log2 fold change, inactive:
GOSR1 (UniProt O95249) -0.023
GRWD1 (UniProt Q9BQ67) 0.112
GINS3 (UniProt Q9BRX5) 0.001
GPRIN1 (UniProt Q7Z2K8) 0.018
GLG1 isoform 2 (UniProt Q92896) -0.016
GLTP (UniProt Q9NZD2) 0.083
GPCPD1 (UniProt Q9NPB8) 0.093
GLB1L2 (UniProt Q8IW92) -0.024
GOLGA7 (UniProt Q7Z5G4) 0.035
GON7 (UniProt Q9BXV9) 0.015
GPX3 (UniProt P22352) -0.157
GLOD4 isoform 2 (UniProt Q9HC38) -0.012
GON4L (UniProt Q3T8J9) 0.072
GNPDA1 (UniProt P46926) -0.005
GNB4 (UniProt Q9HAV0) -0.032
GMPR (UniProt P36959) 0.009
GPBP1L1 (UniProt Q9HC44) 0.058
GMFB (UniProt P60983) -0.011
GOT2 (UniProt P00505) -0.004
GRB2 (UniProt P62993) -0.028
GNA13 (UniProt Q14344) 0.018
GRIPAP1 (UniProt Q4V328) -0.012
GSDME (UniProt O60443) 0.153
GNB1L (UniProt Q9BYB4) -0.037
GOLGA3 (UniProt Q08378) 0.007
GRAP2 (UniProt O75791) 0.02
GPATCH8 (UniProt Q9UKJ3) -0.073
GNL2 (UniProt Q13823) 0.378
GORAB (UniProt Q5T7V8) 0.014
GP1BB isoform 2 (UniProt P13224) 0.021
GPD1L (UniProt Q8N335) -0.117
GMDS (UniProt O60547) -0.039
GPD2 (UniProt P43304) 0.016

Random excerpt: 2 records from the list.
log2 fold change, inactive:
GRWD1 (UniProt Q9BQ67) 0.112
GRIPAP1 (UniProt Q4V328) -0.012
